Source: patent US20130280275A1
No constants are given. Whether binding was seen depends on the method and setting. Some entries that bind do so weakly or less than the wild type.

Amino acid sequences for entries named in this document (tags omitted). Residues count along the entry.
UniProt P43489, residues 29-277: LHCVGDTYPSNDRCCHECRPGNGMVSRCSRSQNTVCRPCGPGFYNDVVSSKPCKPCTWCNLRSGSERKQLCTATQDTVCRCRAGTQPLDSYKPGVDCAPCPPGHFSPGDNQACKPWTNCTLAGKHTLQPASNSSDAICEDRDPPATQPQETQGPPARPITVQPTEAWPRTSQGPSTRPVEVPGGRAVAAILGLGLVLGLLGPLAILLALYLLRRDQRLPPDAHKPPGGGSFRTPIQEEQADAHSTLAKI

B1: mouse 119-122 (antibody, V domains shown)
VH: EVQLVESGGGLVQPGESLKLSCESNEYEFPSHDMSWVRKTPEKRLELVAAINSDGGSTYYPDTMERRFIISRDNTKKTLYLQMSSLRSEDTALYYCARHYDDYYAWFAYWGQGTLVTVSA
VL: DIVLTQSPASLAVSLGQRATISCRASKSVSTSGYSYMHWYQQKPGQPPKLLIYLASNLESGVPARFSGSGSGTDFTLNIHPVEEEDAATYYCQHSRELPLTFGAGTKLELK
B2: Humanized 106-222 IgG1/kappa monoclonal antibody (antibody, V domains shown)
VH: QVQLVQSGSELKKPGASVKVSCKASGYTFTDYSMHWVRQAPGQGLKWMGWINTETGEPTYADDFKGRFVFSLDTSVSTAYLQISSLKAEDTAVYYCANPYYDYVSYYAMDYWGQGTTVTVSS
VL: DIQMTQSPSSLSASVGDRVTITCKASQDVSTAVAWYQQKPGKAPKLLIYSASYLYTGVPSRFSGSGSGTDFTFTISSLQPEDIATYYCQQHYSTPRTFGQGTKLEIK
B3: Chimeric 106-222 IgG1/kappa monoclonal antibody (antibody, V domains shown)
VH: QIQLVQSGPELKKPGETVKISCKASGYTFTDYSMHWVKQAPGKGLKWMGWINTETGEPTYADDFKGRFAFSLETSASTAYLQINNLKNEDTATYFCANPYYDYVSYYAMDYWGHGTSVTVSS
VL: DIVMTQSHKFMSTSVRDRVSITCKASQDVSTAVAWYQQKPGQSPKLLIYSASYLYTGVPDRFTGSGSGTDFTFTISSVQAEDLAVYYCQQHYSTPRTFGGGTKLEIK
B4: Humanized 119-122 IgG1/kappa monoclonal antibody (antibody, V domains shown)
VH: EVQLVESGGGLVQPGGSLRLSCAASEYEFPSHDMSWVRQAPGKGLELVAAINSDGGSTYYPDTMERRFTISRDNAKNSLYLQMNSLRAEDTAVYYCARHYDDYYAWFAYWGQGTMVTVSS
VL: EIVLTQSPATLSLSPGERATLSCRASKSVSTSGYSYMHWYQQKPGQAPRLLIYLASNLESGVPARFSGSGSGTDFTLTISSLEPEDFAVYYCQHSRELPLTFGGGTKVEIK
B5: Chimeric 119-122 IgG1/kappa monoclonal antibody (antibody, V domains shown)
VH: B1 VH
VL: B1 VL

Tests used:
human OX40 (human) [1] = target: human OX40 (human) (UniProt P43489); test: flow cytometry on mixed SUPM2 and SUPM2-hOX40 cells
human OX40 (human) [2] = target: human OX40 (human) (UniProt P43489); test: cell ELISA on dried L-hOX40 cells, anti-mouse IgG Fc HRP
human OX40 (human) [3] = target: human OX40 (human) (UniProt P43489); test: flow cytometry on mixed L and L-hOX40 cells, 0.5 µg purified antibody, PE anti-mouse IgG
human OX40 (human) [4] = target: human OX40 (human) (UniProt P43489); test: FACS binding assay on L/hOX40 cells
human OX40 (human) [5] = target: human OX40 (human) (UniProt P43489); test: FACS binding assay on L/hOX40 cells, PE goat anti-human IgG
human OX40 (human) [6] = target: human OX40 (human) (UniProt P43489); test: FACS binding assay on L/OX40 cells, PE goat anti-human IgG

Binder	binding (human OX40 (human) [5])	binding (human OX40 (human) [6])	other results
B1	–	–	binding (human OX40 (human) [1]): binds; binding (human OX40 (human) [2]): binds; binding (human OX40 (human) [3]): binds
B2	binds	–	binding (human OX40 (human) [4]): binds
B3	binds	–	–
B4	–	binds	–
B5	–	binds	–
